## Results of single-concentration screens

The chains behind the UniProt entries cited, without tags or fusion partners. Residues count along the entry.
UniProt Q4DA54, 1-478: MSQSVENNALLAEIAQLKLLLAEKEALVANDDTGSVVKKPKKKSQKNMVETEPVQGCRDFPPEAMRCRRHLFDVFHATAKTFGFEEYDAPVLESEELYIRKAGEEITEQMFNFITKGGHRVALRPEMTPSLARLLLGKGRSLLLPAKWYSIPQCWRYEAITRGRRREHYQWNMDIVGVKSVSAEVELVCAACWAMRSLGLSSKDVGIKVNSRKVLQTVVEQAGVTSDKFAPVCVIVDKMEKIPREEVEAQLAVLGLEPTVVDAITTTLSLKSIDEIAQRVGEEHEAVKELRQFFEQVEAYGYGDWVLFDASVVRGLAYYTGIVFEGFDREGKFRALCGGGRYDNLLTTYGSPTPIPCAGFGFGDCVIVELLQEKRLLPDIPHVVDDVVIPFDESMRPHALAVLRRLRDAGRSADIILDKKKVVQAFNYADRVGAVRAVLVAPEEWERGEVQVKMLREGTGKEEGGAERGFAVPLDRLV
UniProt P9WNZ1, whole entry: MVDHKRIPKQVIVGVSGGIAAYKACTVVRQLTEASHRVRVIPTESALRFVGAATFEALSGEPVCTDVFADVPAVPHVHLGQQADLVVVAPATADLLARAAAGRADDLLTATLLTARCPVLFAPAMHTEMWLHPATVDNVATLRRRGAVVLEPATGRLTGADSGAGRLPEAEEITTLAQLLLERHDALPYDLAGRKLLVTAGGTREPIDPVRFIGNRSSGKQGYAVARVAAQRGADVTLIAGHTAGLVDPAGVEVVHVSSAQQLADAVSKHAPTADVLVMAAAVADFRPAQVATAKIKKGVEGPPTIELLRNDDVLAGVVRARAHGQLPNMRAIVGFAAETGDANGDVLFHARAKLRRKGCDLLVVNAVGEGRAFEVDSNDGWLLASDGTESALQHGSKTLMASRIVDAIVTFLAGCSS

Source: ChEMBL document CHEMBL3988442, “University of Dundee, Small-Polar-MMV Screening Library” (2021).

The filed quantity is “Percent Effect” (%). The controls that fix the scale are not given in the record; negative values are as filed. The compounds are a random part of those screened. Two or more numbers in one place are separate tests of the same structure; such repeats can differ widely. A dash means the value is not listed here; it may have been measured.

TcHisRS: 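Histidine-tRNA ligase, Trypanosoma cruzi CL Brener (UniProt Q4DA54). Enzyme assay of histidyl-tRNA synthetase; the read-out is not stated. Concentration: 30 µM. The record gives no direction; compounds that gave an IC50 in retests scored well above the rest, so higher reads as stronger inhibition. About 69,000 compounds were tested under these conditions; 0.045% (about 31) showed 50% or more at least once.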
CoaBC: 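Enzyme assay of CoaBC with a phosphate dye (Biomol Green) read at 650 nm. Target: Coenzyme A biosynthesis protein CoaBC, Mycobacterium tuberculosis (UniProt P9WNZ1). Tested at 30 µM. Higher reads as stronger inhibition, judged from the few compounds that gave an IC50. Most strong results did not repeat in a second test. Size under these conditions: about 67,000 compounds, about 40 of them at 50% or above in at least one test.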

| Compound | TcHisRS | CoaBC |
|---|---|---|
| `Cc1cc(-c2cnn(CCNC(=O)C3CC3)c2C2CC2)on1` | 5.376% | 4.319% |
| `COCC(=O)N1CCCC2(CCN(c3cncnc3)C2=O)C1` (stereo unspecified) | 7.143% | -0.3708% |
| `CN(c1ncnc2sccc12)C1CCCN(c2cccnn2)C1` (stereo unspecified) | 6.186% | 1.956% |
| `Cc1nn(C)c(C)c1CN(C)C(=O)c1cc(C(F)(F)F)n(C)n1` | -1.739% | 8.776% |
| `Cc1cn2nc(N3CCN(Cc4c(C)noc4C)CC3)sc2n1` | 1.69% | -1.399% |
| `COc1ccc(CN2CCn3cncc3C2)cc1Cn1cncn1` | 1.087% | 10.28% |
| `O=C(NC[C@@H]1CCCO1)c1cccnc1N1CCCC1c1ccccn1` (stereo partly specified) | 10.23% | -0.7282% |
| `Cc1nc(COCc2cnc3n2CCN(C2CCC2)C3C)cs1` (stereo unspecified) | 4.865% | 4.188% |
| `CCc1nn(C)c2[nH]nc(NC(=O)c3cccnc3NC(C)C)c12` | -1.84% | 1.408% |
| `CCN1CCCn2c(nc(CNC(=O)c3cnoc3C)cc2=O)C1` | 7.2% | 8.705% |
| `Cc1cnn(C2CCCN(C(=O)Cc3c(C)nn(C)c3C)C2)c1` (stereo unspecified) | 2.312% | 4.215% |
| `O=C(c1ccco1)N1C[C@@H]2OCCN(c3ncccn3)[C@@H]2C1` | -14.29% | 1.356% |
| `Cc1c(Br)cccc1CNC1(CCO)CCOCC1` | 6.494% | - |
| `COc1ccc(C(=O)C2CCCN(CCc3ccccc3)C2)c(OC)c1` (stereo unspecified) | 2.424% | 7.152% |
| `C[C@@H]1CN(S(C)(=O)=O)C[C@]12CCN(Cc1cccnc1)C2=O` | -0.4808% | -1.176% |
| `CN(c1cccnn1)C1CCN(C(=O)c2ccc3c(c2)COC3)CC1` | 2.29% | 0.9639% |
| `C1CC(N2Cc3nnn(CC4CC4)c3C(COCC3CC3)C2)C1` (stereo unspecified) | 6.667% | 5.122% |
| `CC1(C)CN(Cc2ccncc2)CCS1(=O)=O` | 6.03% | 15.21% |
| `CCc1nnc2n1CCN(Cc1nc3c(F)cccc3[nH]1)C2` | 0.5525% | 15.05% |
| `O=C(NCCCN1CCOCC1)C1CCCN(Cc2ccco2)C1` (stereo unspecified) | 7.821% | 2.828% |
| `O=C(CCS(=O)(=O)C1CCCC1)N1CCCC(n2ccnc2)C1` (stereo unspecified) | 9.524% | 1.86% |
| `CCc1[nH]ncc1C(=O)N1CCCN(Cc2nccn2C(C)C)CC1` | 9.091% | 3.158% |
| `O=C(NCC1(O)CCC1)NC(c1cc(F)ccc1F)C1CC1` (stereo unspecified) | 10% | 0.3891% |
| `Cc1nn(-c2ccccc2)c(C)c1CC(=O)NC1CC(=O)N(C)C1` (stereo unspecified) | 19.28% | 1.485% |
| `Cc1cc(NCCc2nnc(N)s2)nc(-c2ccccc2)n1` | 6.468% | 5.679% |
| `O=C(Cn1cc(Cl)cn1)N1CCNC1=O` | 3.483% | 1.38% |
| `N#Cc1cc(CSCCN2CCOCC2)ccc1F` | 4.255% | 2.811% |
| `CC(C)NC(=O)N1CCN(Cc2ccccn2)CC2(CC(=O)N(C)C2)C1` (stereo unspecified) | 4.511% | -0.7255% |
| `OCCNc1nc(Nc2ccccc2)c2nccnc2n1` | 0% | -7.075% |
| `CC(Oc1ccc(F)cc1F)C(=O)N1CCC2(CC1)CC(=O)N(C)C2` (stereo unspecified) | 5.195% | 2.683% |
| `O=C(CCNC1(c2nccs2)CCCC1)N1CCOCC1` | 0.4926% | 1.266% |
| `Cc1ccn(-c2ccc(NCc3cccnc3N3CCCCC3)nn2)n1` | -0.578% | 8.678% |
| `Cc1nccc([C@@H]2C[C@@H]3CCN(S(C)(=O)=O)C[C@H]3O2)n1` | 1.695% | -7.048% |
| `CN(C)C(C(=O)N1CCC(N2CCSCC2)CC1)c1ccccc1F` (stereo unspecified) | -0.813% | 0% |
| `Cc1nc2ccc(C(=O)N3C[C@@H](O)[C@H](N4CCOCC4)C3)cc2[nH]1` | 4.478% | 15.57% |
| `Cc1ccc(CC(=O)N2CCC(Nc3cccnn3)CC2)s1` | 11.24% | 6.21% |
| `c1ccc2ncc(CC3CCNCC3)cc2c1` | 2.326% | -10.67% |
| `CCn1cc(CN2C[C@H]3CC[C@@H]2CN(C(=O)c2ccncc2)C3)cn1` | 3.226% | 0% |
| `CCc1cc(CNC(=O)C2CCC(=O)N(Cc3ccccc3F)C2)on1` (stereo unspecified) | -4.831% | 4.099% |
| `COc1cc(CN2CCCC(Nc3cccc(F)c3)C2)cc(OC)c1O` (stereo unspecified) | 6.977% | 4.292% |
| `CS(=O)(=O)NCC1CCCCN1C(=O)c1cccc(C(F)(F)F)c1` (stereo unspecified) | 5.202% | 4.725% |
| `Cn1ccnc1CNC(=O)N(CCCO)C1CCCc2ccccc21` (stereo unspecified) | -3.261% | -1.754% |
| `CCC(=O)N1CCN(Cc2cnc(C)nc2)[C@H]2CS(=O)(=O)C[C@H]21` | 2.97% | -4.982% |
| `Cc1cnccc1NCCNC1CCN(CC(C)C)CC1` | 9.135% | 2.672% |
| `COc1ccc(C2CN(c3cc(C)ncn3)CCN2C(C)=O)cc1` (stereo unspecified) | 1.13% | 8.763% and 41.4% |
| `Cc1noc(CN(C)CC2(O)CCCN(CCC3CCCCC3)C2=O)n1` (stereo unspecified) | 10.34% | 0.123% |
| `CCN1C(=O)CCC12CCCN(S(=O)(=O)c1cccc(C)c1)CC2` (stereo unspecified) | 4.854% | -1.781% |
| `CN(C)Cc1cncc2c1CCN(Cc1cnn(C)c1)C2` | 6.931% | -3.1% |
| `CC(Cc1ccco1)NC(=O)Nc1cnn(CC(N)=O)c1` (stereo unspecified) | 1.88% | 2.872% |
| `CN(Cc1cnc2ccccc2c1)C(=O)C(c1ccccc1F)N(C)C` (stereo unspecified) | 2.4% | 0.2165% |
| `COCCNc1nc(-n2nc(C)cc2C)nc2sc3c(c12)CCCC3` | 24.84% | -2.658% |
| `COc1ccc(CNc2nc(N3CCOCC3)ns2)cc1` | 10% | 2.335% |
| `CC(C)CC(O)C1CCN(C(=O)c2ccc(C(C)C)[nH]c2=O)CC1` (stereo unspecified) | -1.149% | 1.845% |
| `CC(C)[C@H](NS(C)(=O)=O)C(=O)NCc1cc(-c2cccc(Cl)c2)nn1C` | 2.26% | 1.084% |
| `CSc1ccc(CCN2CCN([C@H]3CCCC[C@@H]3O)CC2)cc1` | 7.2% | -1.515% |
| `CCS(=O)(=O)NCC1Cn2nnc(-c3ccccc3)c2CO1` (stereo unspecified) | 8.163% | -1.607% |
| `Cc1sc2nc(C(F)(F)F)nc(N3CCCN(C)CC3)c2c1C` | 5.806% | -1.449% |
| `Cc1csc(CN(C)c2cc(C)nc3c(C)c(C)nn23)n1` | 6.931% | -1.142% |
| `CC(C)(C)n1cc(C(=O)O)c(-c2ccc(F)cc2F)n1` | 6.358% | 3.719% |
| `CCN1C[C@@H]2[C@@H](OC)CCN(C(=O)c3cc(C)nn3CC)[C@@H]2C1` | 10.87% | -7.477% |
| `Cc1cccc(C(=O)N2CCN(S(C)(=O)=O)[C@@H](C)C2)c1Cl` | 5.521% | 7.042% |
| `CC(C)c1ncc2c(n1)CN(c1ncnc3[nH]ccc13)CC2` | 13.86% | 2.427% |
| `CN(Cc1nnc(-c2ccco2)o1)C(C(N)=O)c1cccc(F)c1` (stereo unspecified) | 7.317% | 0.2532% |
| `Cn1cc(CCCN2CCN(C(=O)c3cccc(O)c3)CC2)cn1` | 4.598% | 6% |
| `O=C(c1ncc[nH]1)N1CCC(Cn2cc(-c3cccc(Cl)c3)nn2)CC1` | 4.938% | 1.966% |
| `Cc1nnc(CN2CCCC2c2c(C)nn(C)c2Cl)o1` (stereo unspecified) | 2.89% | 1.434% |
| `Cn1c(CCCNC(=O)Nc2cn[nH]c2)nc2ccccc21` | 0% | -0.7371% |
| `Cc1cnn(CC2CCCN2CC(=O)Nc2cc(C(C)C)no2)c1` (stereo unspecified) | 3.134% | -8.311% |

Repeated from the top, 7 entries:

| Compound | TcHisRS | CoaBC |
|---|---|---|
| `Cc1cc(-c2cnn(CCNC(=O)C3CC3)c2C2CC2)on1` | 5.376% | 4.319% |
| `COCC(=O)N1CCCC2(CCN(c3cncnc3)C2=O)C1` (stereo unspecified) | 7.143% | -0.3708% |
| `CN(c1ncnc2sccc12)C1CCCN(c2cccnn2)C1` (stereo unspecified) | 6.186% | 1.956% |
| `Cc1nn(C)c(C)c1CN(C)C(=O)c1cc(C(F)(F)F)n(C)n1` | -1.739% | 8.776% |
| `Cc1cn2nc(N3CCN(Cc4c(C)noc4C)CC3)sc2n1` | 1.69% | -1.399% |
| `COc1ccc(CN2CCn3cncc3C2)cc1Cn1cncn1` | 1.087% | 10.28% |
| `O=C(NC[C@@H]1CCCO1)c1cccnc1N1CCCC1c1ccccn1` (stereo partly specified) | 10.23% | -0.7282% |